Results as given in PubChem BioAssay AID1347421 (Sanford-Burnham Center for Chemical Genomics, 2020).
The full ranking holds about 1,500 compounds; the median of “activity” is about 2, and the lowest 2% start at about -18. Some of the results follow. Calls of active or inactive are those of the source.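 How the source made its calls: active means inhibition of at least 40% at 10 µM; inconclusive means no clear call, values can overlap the other calls; inactive means the rest.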

Sequences of proteins named here, by UniProt entry; tags and fusion partners are left off. A change or cut given only in a name is not applied to a line headed by its entry.
UniProt O00391: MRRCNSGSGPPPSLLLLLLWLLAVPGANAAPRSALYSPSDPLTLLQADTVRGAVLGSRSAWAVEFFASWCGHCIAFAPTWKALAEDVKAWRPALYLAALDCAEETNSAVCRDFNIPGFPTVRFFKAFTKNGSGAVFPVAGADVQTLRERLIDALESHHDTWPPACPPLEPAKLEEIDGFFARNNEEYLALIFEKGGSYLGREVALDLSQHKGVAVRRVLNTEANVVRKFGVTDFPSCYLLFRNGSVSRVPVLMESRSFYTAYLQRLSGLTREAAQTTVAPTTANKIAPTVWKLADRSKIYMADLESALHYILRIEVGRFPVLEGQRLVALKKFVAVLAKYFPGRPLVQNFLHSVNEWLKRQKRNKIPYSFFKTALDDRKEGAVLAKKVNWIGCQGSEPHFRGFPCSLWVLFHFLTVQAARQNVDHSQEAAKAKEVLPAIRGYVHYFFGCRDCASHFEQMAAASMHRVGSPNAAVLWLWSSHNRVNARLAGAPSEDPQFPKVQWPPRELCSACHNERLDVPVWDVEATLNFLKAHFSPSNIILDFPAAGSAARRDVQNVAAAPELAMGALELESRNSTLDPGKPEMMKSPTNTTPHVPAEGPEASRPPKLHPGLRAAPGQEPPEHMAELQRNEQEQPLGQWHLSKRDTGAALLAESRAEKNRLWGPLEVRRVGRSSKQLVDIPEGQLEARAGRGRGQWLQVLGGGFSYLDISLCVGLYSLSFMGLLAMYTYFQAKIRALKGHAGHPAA

The compounds below were run against Sulfhydryl oxidase 1 (Homo sapiens) (UniProt O00391) (assay: human QSOX1 sulfhydryl oxidase inhibition – biochemical, ROS-Glo luminescence, single concentration, confirmation (AID 1347421;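 further: 0% = DMSO wells with enzyme and 100% = wells lacking QSOX1 enzyme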)). Settings: recombinant hQSOX1, RNase A substrate, ROS-Glo H2O2 luminescence; at 10 µM.

| SMILES | activity |
| --- | --- |
| O=C(C(=O)N1CCOC(CC2CCCCC2)C1)c1ccccc1 (configuration not stated) | 5.9% |
| CC(C)Oc1cccc(NC(=O)Nc2ccccc2)c1 | 6.3% |
| CC(C)CCCC1CN(c2ccnc(CO)c2)CCO1 (configuration not stated) | inactive: -2.6% |
| C=CCn1cc(CNC2CCCN(Cc3ccccc3F)C2)c(C)n1 (configuration not stated) | 6% |
| COc1cc(CNCCc2cnccn2)ccc1OCC(O)CN1CCSCC1 (configuration not stated) | 1.9% |
| Cc1ccc(C2(c3noc(CN4CCN(C5CCS(=O)(=O)C5)CC4)n3)CCCC2)cc1 (configuration not stated) | 2.6% |
| CCc1ocnc1C(=O)N1CCC2(CCCN(Cc3ccc(F)cc3)C2=O)C1 (configuration not stated) | 1.8% |
| O=C(NCC(c1ccncc1)N1CCOCC1)c1cn(Cc2ccc(F)cc2Cl)nn1 (configuration not stated) | 6.3% |
| CCOC(=O)N1CCN(S(=O)(=O)c2ccc(NC(=O)N3CCCC3)cc2)CC1 | 5.9% |
| O=C(Cn1ncc(N2CCc3ccccc3C2)cc1=O)OCc1ccccc1 | 6.1% |
| Cc1nc(CC(=O)N2CCc3onc(-c4ccc(Cl)cc4)c3C2)cs1 | 5% |
| C=CCc1ccc(OCCn2ccnc2)c(OC)c1 | inactive: -1.4% |
| Fc1cccc(C2(CNc3ccnn3Cc3cccnc3)CCOC2)c1 (configuration not stated) | 4.3% |
| COc1ccc(-c2[nH]ncc2CNC(Cn2ccnc2)C(C)(C)C)c(F)c1 (configuration not stated) | 0.9% |
| O=C(CCCn1nnnc1CN1CCOCC1)NCCCN1CCc2ccccc21 | 5.8% |
| Cc1ccc(C(=O)N2CCC3(CCCN(Cc4ccc(F)c(F)c4)C3=O)C2)cn1 (configuration not stated) | 3.9% |
| O=C(CCC1CCN(C(=O)C2=CCCCC2)CC1)NCc1cccnc1 | 1% |
| CCc1cc(CNCc2ccc(OCC(O)CN3CCOCC3)c(OC)c2)on1 (configuration not stated) | 2.5% |
| Cc1cccc(N2CCC(NC(=O)C3CCC(=O)N(CCCN4CCOCC4)C3)CC2)c1 (configuration not stated) | 13.1% |
| O=C(NCC(c1ccc(F)cc1)N1CCCC1)c1cn(CCN2CCOCC2)nn1 (configuration not stated) | 2.4% |
| C#CCSc1nc2c(c(=O)[nH]1)C(c1cccc(F)c1)CC(=O)N2 (configuration not stated) | inactive: -13.9% |
| Cc1ccc(-n2cc(CN3CCCC(C(N)=O)C3)c(-c3ccc(F)cc3)n2)cc1 (configuration not stated) | 10.7% |

| SMILES | activity |
| --- | --- |
| CCSCCn1ncc(N2CCNCC2)cc1=O | 1.4% |
| C=CCC(O)(CC=C)CNC(=O)C1CCC(=O)N(CCc2ccc(OC)cc2)C1 (configuration not stated) | 3.6% |
| CC1CC(=O)c2cn3c(nc2C1)nc1ccccc13 (configuration not stated) | inactive: -2.3% |
| O=C1CN(C(=O)c2cc3ccccc3o2)c2ccccc2N1 | inactive: -2.8% |
| CN(Cc1nccs1)C(=O)CC1C(=O)NCCN1Cc1cccc(Oc2ccccc2)c1 (configuration not stated) | inactive: -0.7% |
| CCN(CC)C(=O)N1CCN(c2cccc(C)c2C)CC1 | inactive: -2.4% |
| CCN(CC1CCCO1)C(=O)C1CCN(C2CCN(Cc3ccccc3C)CC2)CC1 (configuration not stated) | 9.1% |
| O=C(Nc1ccccc1C(=O)NC1CC1)c1ccccc1Cl | 11.7% |
| CN(C)CCCN(CC1CCN(C2Cc3ccccc3C2)CC1)C(=O)CN1CCOC1=O | inactive: -2.6% |
| COc1ccc(C(C)(C)NC(=O)C2CCC(=O)N(Cc3ccccc3F)C2)cc1OC (configuration not stated) | inactive: -0.6% |
| CCN(CC)C(=O)Cn1cc(C(=O)N2CCCCC2CCn2cccn2)nn1 (configuration not stated) | inactive: -3.7% |
| CCC(C)c1n[nH]c2c1CN(C(=O)CC1CNCCO1)CC2 (configuration not stated) | 0.3% |
| c1ccc(CCCC2CN(Cc3ccccn3)CCO2)cc1 (configuration not stated) | 6.1% |
| O=C1CCC(C(=O)N2CCCC(CCC(=O)N3CCN(Cc4ccccc4)CC3)C2)=NN1 (configuration not stated) | 4.6% |
| CC(C)(C)C(=O)NCCc1nc2ccccc2[nH]1 | inactive: -10.7% |
| O=c1cc(N2CCNCC2)cnn1Cc1c(Cl)cccc1Cl | 1.1% |
| O=C(CCc1cccnc1)N1CCc2onc(-c3ccc(Cl)cc3)c2C1 | 9.9% |
| CCOC(=O)C1(CCc2ccccc2)CCN(C(=O)c2ccncc2)CC1 | 5% |
| COCC(=O)N1CCC(Oc2ccc(C(=O)NCCc3ccc(F)cc3)cc2)CC1 | inactive: -2.2% |
| O=C(c1csnn1)N1CCOC(CC2CCCCC2)C1 (configuration not stated) | 2% |
| COc1ccc(NC2CCCN(C(=O)c3ccccc3-c3ncc[nH]3)C2)cc1 (configuration not stated) | 2.6% |
| Fc1cccc(C2(CNc3ccc(-n4ccnc4)cc3)CCOC2)c1 (configuration not stated) | 4% |

| SMILES | activity |
| --- | --- |
| Cc1noc(C)c1C(=O)N1CCOC(CC2CCCCC2)C1 (configuration not stated) | inactive: -2% |
| C=C(C)CNC(=O)C1CCC(=O)N(CCCc2ccccc2)C1 (configuration not stated) | inactive: -5.8% |
| Brc1ccc(Cn2ccnc2)cc1 | 1% |
| CCOC(=O)C1(CCOc2ccccc2)CCN(C)CC1 | 7.1% |
| CC1CCN(Cc2nnnn2CCCC(=O)N(C)CCC(O)c2ccccc2)CC1 (configuration not stated) | 7.2% |
| O[C@@H]1CN(Cc2coc(-c3ccccc3)n2)CC[C@H]1N1CCCCCC1 | inactive: -3.5% |
| O=C(NCc1ccncc1)c1ccc(C2CCCN2Cc2ccco2)s1 (configuration not stated) | 5.4% |
| CCN1CCCC1CN(CC1CCN(CCOC)CC1)C(=O)Cn1cncn1 (configuration not stated) | 11.5% |
| CCC(O)CNC(=O)c1coc(CN2CCN(C/C=C/c3ccccc3)CC2)n1 (configuration not stated) | 1.5% |
| COc1ccc(CN2CCNC(=O)C2CC(=O)NCCSc2nccn2C)c(OC)c1 (configuration not stated) | 7.5% |
| Cc1nc(CNC(=O)C2(N3CCCCC3)Cc3ccccc3C2)cs1 | 6% |
| CNC(=O)CSCc1ccc(F)cc1 | inactive: -11.4% |
| COc1ccc(Cl)cc1NC(=O)CCC1CCCN(C(=O)c2cnc[nH]2)C1 (configuration not stated) | 1.3% |
| CC(C)NC(=O)C1CCN(C2CCN(C3CCC3)CC2)CC1 | 3.6% |
| O=C(c1cc(-c2cnn(CCO)c2)nc2cc(F)ccc12)N1CCSCC1 | 2.9% |
| COCCNC(=O)CCC1CCN(S(=O)(=O)c2cc(C)sc2C)CC1 | 14.3% |
| CCN1CCN(CC(O)COc2ccc(CNCCCSC)cc2OC)CC1 (configuration not stated) | 7.8% |
| CCN(CCO)Cc1cnc(S(=O)(=O)CCOC)n1Cc1ccccc1 | inactive: -2.8% |
| CCN1CCCC1CN(CC1CCN(CCOC)CC1)C(=O)CCc1ccc(=O)[nH]n1 (configuration not stated) | 6.9% |
| COCc1cc(CNC2CCN(c3ccc(-n4cccn4)cc3)CC2)n[nH]1 | inactive: -2.6% |
| CCN(CCO)C1CC(=O)N(c2ccccc2C)C1=O (configuration not stated) | 2.5% |
| COc1cccc(CN(C)Cc2nc(Cc3cccc(C(F)(F)F)c3)no2)c1 | 3.2% |

Rewritten with bars between the fields: three of the compounds above.
SMILES | activity
O=C(c1cc(-c2cnn(CCO)c2)nc2cc(F)ccc12)N1CCSCC1 | 2.9%
CCN1CCCC1CN(CC1CCN(CCOC)CC1)C(=O)CCc1ccc(=O)[nH]n1 (configuration not stated) | 6.9%
COc1cccc(CN(C)Cc2nc(Cc3cccc(C(F)(F)F)c3)no2)c1 | 3.2%

Additional compounds follow:

| SMILES | activity |
| --- | --- |
| O=C(NCC1CCCN(C(=O)CCCN2CCCC2=O)C1)c1ccccc1Cl (configuration not stated) | inactive: -1.5% |
| C#CCN(Cc1ccco1)C(=O)CCc1nnc(Cc2ccc3c(c2)OCO3)o1 | 6.1% |
| CCNS(=O)(=O)c1cc(C)c(C)cc1Br | inactive: -4.8% |
| Cc1cc(Oc2ccccc2)nc(Oc2ccc(=O)n(-c3ccccc3)n2)n1 | inactive: -9.1% |
| COc1ccc(CCN2CCCC(CN(C)C(=O)c3nonc3C)C2)cc1 (configuration not stated) | 7.5% |
| Cc1nc(CCNC(=O)C2CCC(=O)N(Cc3ccccn3)C2)nc2c1CCC2 (configuration not stated) | inactive: -2.5% |
| COCCCNc1nc2nonc2nc1N(C)CCN1CCOCC1 | inactive: -1.4% |
| CN(CC(O)COc1ccccc1CNCCCO)C1CCCCC1 (configuration not stated) | 3.3% |
| CCCc1cc(CN(C)Cc2cnc(S(=O)(=O)CC3CC3)n2CCOC)[nH]n1 | 4.6% |
| O=c1c(CN2CCCC(N3CCc4ccccc4C3)C2)coc2ccccc12 (configuration not stated) | 2.5% |
| CCC(=O)N1CCN(c2ccc(NC(=O)c3cccs3)cc2Cl)CC1 | inactive: -11.7% |
| COc1ccc(NC2CCCN(C(=O)CSc3ccccc3)C2)cc1 (configuration not stated) | inactive: -0.9% |
| CCOC1(C(F)(F)F)NC(=O)N(c2ccc(OC)cc2)C1=O (configuration not stated) | inactive: -2.2% |
| Cc1ccc(NC(=O)CN2CCc3ccccc3C2)cc1 | inactive: -21.7% |
| COc1ccc(CCN(C)C2CCCN(CC(C)C)C2)cc1OC (configuration not stated) | 0.5% |
| Fc1cccc(C2(CN3CCC(Oc4ncccn4)CC3)CCOC2)c1 (configuration not stated) | inactive: -1.9% |
| CCC1=[C+]c2c(nc(C)nc2N2CCOCC2)S1 | inactive: -20.3% |
| Cc1[nH]ncc1C(=O)N1CCOC(CC2CCCCC2)C1 (configuration not stated) | 3.4% |
| C=CCC(O)(CC=C)CNC(=O)C1CCC(=O)N(Cc2ccccc2OC)C1 (configuration not stated) | 0.6% |
| COCCNC(=O)CCC1CCN(Cc2cn[nH]c2-c2cc(C)ccc2C)CC1 | inactive: -2.8% |
| CCCNc1ccc(-c2nc(-c3ncccn3)no2)cc1 | active: 53% |
| NC(=O)C1(C(=O)N(Cc2cccnc2)CC2CCCN(C3CCCCC3)C2)CC1 (configuration not stated) | 3% |

Another view of four compounds above:
Cc1ccc(C(=O)N2CCC3(CCCN(Cc4ccc(F)c(F)c4)C3=O)C2)cn1 (configuration not stated)
  activity: 3.9%
O=C(CCC1CCN(C(=O)C2=CCCCC2)CC1)NCc1cccnc1
  activity: 1%
CCc1cc(CNCc2ccc(OCC(O)CN3CCOCC3)c(OC)c2)on1 (configuration not stated)
  activity: 2.5%
Cc1cccc(N2CCC(NC(=O)C3CCC(=O)N(CCCN4CCOCC4)C3)CC2)c1 (configuration not stated)
  activity: 13.1%

Continued:

| SMILES | activity |
| --- | --- |
| CCCC(=O)Nc1ccc(N2CCN(C(=O)c3ccco3)CC2)c(Cl)c1 | inactive: -4% |
| C=CCNCc1ccc(OCC(O)CN(C)C2CCCCC2)c(OC)c1 (configuration not stated) | 2.7% |
| OC(COc1ccccc1CNCCCCCN1CCOCC1)CN1CCSCC1 (configuration not stated) | inactive: -1.3% |
| CN(Cc1ccccc1)CC(O)COc1ccc(CNC2CCC(O)CC2)cc1 (configuration not stated) | 0.7% |
| O=C1CCCN1CCCNCc1cccc(OCC(O)CN2CCCCCC2)c1 (configuration not stated) | 5.6% |
| CC(=O)Nc1cc(C(=O)NC2CCCCCC2)ccc1C | inactive: -4.1% |
| O=C(CCC1CCN(C(=O)CCc2cccnc2)CC1)NCC1CCCO1 (configuration not stated) | 11% |
| COc1ccc(C(=O)N2CCc3onc(-c4ccc(F)c(F)c4)c3C2)o1 | inactive: -1.2% |
| Cc1ccccc1NC(=O)NCc1ccncc1 | inactive: -14.4% |
| COc1ccc(-c2cc3ccc(OC(C)=O)cc3oc2=O)cc1OC | active: 49.9% |
| COc1ccccc1C(C)N(C)C(=O)c1cn(Cc2ccc(Cl)cc2)nn1 (configuration not stated) | 8.2% |
| O=C(CSc1ccccn1)N1CCC2(CCCN(CC3CC3)C2=O)C1 (configuration not stated) | 2.8% |
| O=C(c1ccccc1OC1CCN(Cc2ccccc2O)CC1)N1CCCC1 | inactive: -5.8% |
| C=CCN(CC=C)C(=O)C1CCC(=O)N(CCCN2CCOCC2)C1 (configuration not stated) | 0.3% |
| Cc1cc(=O)c2cc(C(=O)NCc3ccco3)ccc2[nH]1 | inactive: -0.6% |
| Cc1ccccc1C(=O)Nc1ccnn1C1CCN(C(=O)c2ccco2)CC1 | 6.3% |
| Cc1ccc(CCNC(=O)Nc2nnc(-c3ccco3)s2)s1 | 4.6% |
| COCCc1cc(=O)[nH]c(-c2ccc(CN(C)Cc3ccccn3)cc2)n1 | 6.6% |
| c1ccc(Cc2nn3c(-c4ccco4)nnc3s2)cc1 | inactive: -5.1% |
